Results published in article PMC4459816.
These are yes or no findings as the source states them, for the method shown. In cells and extracts the contact can be indirect. Some entries that bind do so weakly or less than the wild type.

Sequences of proteins named here, by UniProt entry; tags and fusion partners are left off. Residues count along the entry.
UniProt Q02242, residues 25-288: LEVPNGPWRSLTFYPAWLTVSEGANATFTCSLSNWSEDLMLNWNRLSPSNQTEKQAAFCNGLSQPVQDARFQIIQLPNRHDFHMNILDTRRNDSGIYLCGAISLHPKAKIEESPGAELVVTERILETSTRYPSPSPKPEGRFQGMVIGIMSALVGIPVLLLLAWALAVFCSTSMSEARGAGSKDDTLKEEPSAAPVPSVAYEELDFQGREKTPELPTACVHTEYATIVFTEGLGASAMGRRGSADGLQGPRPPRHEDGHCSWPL
UniProt P39688: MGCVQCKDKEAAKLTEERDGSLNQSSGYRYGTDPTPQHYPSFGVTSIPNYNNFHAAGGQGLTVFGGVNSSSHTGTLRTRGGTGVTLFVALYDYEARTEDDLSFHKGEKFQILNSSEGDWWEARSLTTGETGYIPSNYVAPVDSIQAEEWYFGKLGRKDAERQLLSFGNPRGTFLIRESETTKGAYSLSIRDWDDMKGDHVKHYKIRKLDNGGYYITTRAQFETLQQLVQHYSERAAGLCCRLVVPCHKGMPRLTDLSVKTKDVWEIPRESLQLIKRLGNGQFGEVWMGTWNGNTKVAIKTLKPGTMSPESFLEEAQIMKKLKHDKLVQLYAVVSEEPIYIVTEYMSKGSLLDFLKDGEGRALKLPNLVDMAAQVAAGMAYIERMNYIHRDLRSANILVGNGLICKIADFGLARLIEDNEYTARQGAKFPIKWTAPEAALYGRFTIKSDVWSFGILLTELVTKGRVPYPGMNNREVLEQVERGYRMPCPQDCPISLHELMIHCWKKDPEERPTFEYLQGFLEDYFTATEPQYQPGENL

Columns and labels:
Assay in all cases: co-IP; endogenous proteins; CD8+ CTLs stimulated with hydrogen peroxide and sodium orthovanadate; lysates incubated with various antibodies and protein G-coupled sepharose beads; immunoblotting with antibodies against SKAP55, ADAP and Fyn
[1] = target: T1, ADAP (adhesion and degranulation promoting adaptor protein) (mouse (endogenous in CD8+ CTLs)) (UniProt O35601)
T1 sequence: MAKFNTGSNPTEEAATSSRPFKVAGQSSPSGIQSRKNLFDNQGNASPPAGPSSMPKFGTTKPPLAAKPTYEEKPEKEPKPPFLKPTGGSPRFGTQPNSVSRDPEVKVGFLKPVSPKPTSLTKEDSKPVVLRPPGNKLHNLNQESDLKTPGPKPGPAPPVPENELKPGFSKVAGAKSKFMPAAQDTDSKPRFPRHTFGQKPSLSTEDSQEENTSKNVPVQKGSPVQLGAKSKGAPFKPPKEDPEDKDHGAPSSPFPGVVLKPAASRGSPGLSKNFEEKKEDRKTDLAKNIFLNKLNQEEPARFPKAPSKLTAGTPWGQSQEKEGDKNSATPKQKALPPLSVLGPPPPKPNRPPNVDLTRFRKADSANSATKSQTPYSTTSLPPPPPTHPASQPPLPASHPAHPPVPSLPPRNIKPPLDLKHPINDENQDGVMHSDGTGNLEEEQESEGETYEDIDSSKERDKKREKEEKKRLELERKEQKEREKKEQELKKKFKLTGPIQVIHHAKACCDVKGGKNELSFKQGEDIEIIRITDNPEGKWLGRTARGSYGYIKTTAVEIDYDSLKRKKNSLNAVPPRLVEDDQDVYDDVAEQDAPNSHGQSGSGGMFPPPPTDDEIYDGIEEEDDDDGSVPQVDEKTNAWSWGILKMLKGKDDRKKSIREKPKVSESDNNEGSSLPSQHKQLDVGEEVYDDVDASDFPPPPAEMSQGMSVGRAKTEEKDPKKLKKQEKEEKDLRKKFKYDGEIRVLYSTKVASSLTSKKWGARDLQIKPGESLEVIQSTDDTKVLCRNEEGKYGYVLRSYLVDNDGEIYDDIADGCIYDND

[2] = target: Programmed Cell Death Receptor 1 (PD-1) (mouse (endogenous in CD8+ CTLs)) (UniProt Q02242)
[3] = target: T2, SKAP55 (src kinase-associated protein of 55 kDa) (mouse (endogenous in CD8+ CTLs)) (UniProt Q3UUV5)
T2 sequence: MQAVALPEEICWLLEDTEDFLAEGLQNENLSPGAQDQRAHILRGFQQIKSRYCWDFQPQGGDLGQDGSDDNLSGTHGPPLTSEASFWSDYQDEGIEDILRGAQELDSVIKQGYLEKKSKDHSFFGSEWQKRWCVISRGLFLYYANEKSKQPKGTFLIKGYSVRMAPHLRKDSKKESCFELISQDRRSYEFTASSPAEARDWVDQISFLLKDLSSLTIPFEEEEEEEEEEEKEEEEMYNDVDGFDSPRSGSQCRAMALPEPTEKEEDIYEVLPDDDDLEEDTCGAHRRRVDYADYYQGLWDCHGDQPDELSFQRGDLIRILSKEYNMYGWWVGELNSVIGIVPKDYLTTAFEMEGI

- binding [1]: binds
- binding [3]: binds
Substance: Fyn (from UniProt P39688 1-537) (enzyme)
- binding [2]: binds
